Test results reported in patent publication US6767507B1, “Uncomplexed cyclodextrin compositions for odor control” (The Procter & Gamble Company, priority 1998, dated 2004).

assay: Cyclodextrin (CD) interaction of perfume components; format: physicochemical; settings: perfume component versus cyclodextrin; words weak / significant / strong

Compound	CD interaction
CCCCCCOC(=O)c1ccccc1O [Hexyl Salicylate]	weak
CCC(=O)OC1CC2CC1C1CC=CC21 (stereo not shown) [Frutene]	strong
CCCCCC1C(=O)CCC1CC(=O)OC (stereo not shown) [Methyl Dihydro Jasmonate]	weak
CCC(C)(O)CCCC(C)C (stereo not shown) [Tetrahydrolinalol]	significant
CCOC(=O)c1ccccc1C(=O)OCC [Diethyl Phthalate]	weak
CC(=O)/C=C/C1C(C)=CCCC1(C)C (stereo not shown) [a-ionone]	strong
CC(=O)OC(C)(C)C1CC=C(C)CC1 (stereo not shown) [Terpinyl Acetate]	significant
CC(=O)C1(C)CC2=C(CCCC2(C)C)CC1C (stereo not shown) [Iso-E Super]	weak
CC(C=O)Cc1ccc(C(C)C)cc1 (stereo not shown) [Cymal]	strong
CC1COCc2cc3c(cc21)C(C)(C)C(C)C3(C)C (stereo not shown) [Galaxolide]	weak
a-Me Ionone	strong
CC(C=O)Cc1ccc(C(C)(C)C)cc1 (stereo not shown) [Lilial, p-t-bucinal]	strong
CCCCCCCCCCCCCC(=O)OC(C)C [Iso-propyl Myristate]	weak
CC(=O)C(C)=C(C)C(C)C(C)(C)C (stereo not shown) [Koavone]	strong
CC(C)(O)CCCC1=CCC(C=O)CC1 (stereo not shown) [Lyral]	weak
CC(=O)OC1CCC(C(C)(C)C)CC1 (stereo not shown) [Vertenex, para-tert-butylcyclohexyl acetate]	strong
CCCCCCC(C=O)=Cc1ccccc1 [Hexyl cinnamic Aldehyde]	weak
O=C(Cc1ccccc1)OCCc1ccccc1 [Phenyl-Ethyl-Phenyl Acetate]	weak
CC(=O)OC1CC2CC1C1CC=CC21 (stereo not shown) [Flor Acetate]	strong
